The values below come from paper doi:10.1101/2025.10.26.684595.

Sequences of proteins named here, by UniProt entry; tags and fusion partners are left off.
UniProt E2JF22: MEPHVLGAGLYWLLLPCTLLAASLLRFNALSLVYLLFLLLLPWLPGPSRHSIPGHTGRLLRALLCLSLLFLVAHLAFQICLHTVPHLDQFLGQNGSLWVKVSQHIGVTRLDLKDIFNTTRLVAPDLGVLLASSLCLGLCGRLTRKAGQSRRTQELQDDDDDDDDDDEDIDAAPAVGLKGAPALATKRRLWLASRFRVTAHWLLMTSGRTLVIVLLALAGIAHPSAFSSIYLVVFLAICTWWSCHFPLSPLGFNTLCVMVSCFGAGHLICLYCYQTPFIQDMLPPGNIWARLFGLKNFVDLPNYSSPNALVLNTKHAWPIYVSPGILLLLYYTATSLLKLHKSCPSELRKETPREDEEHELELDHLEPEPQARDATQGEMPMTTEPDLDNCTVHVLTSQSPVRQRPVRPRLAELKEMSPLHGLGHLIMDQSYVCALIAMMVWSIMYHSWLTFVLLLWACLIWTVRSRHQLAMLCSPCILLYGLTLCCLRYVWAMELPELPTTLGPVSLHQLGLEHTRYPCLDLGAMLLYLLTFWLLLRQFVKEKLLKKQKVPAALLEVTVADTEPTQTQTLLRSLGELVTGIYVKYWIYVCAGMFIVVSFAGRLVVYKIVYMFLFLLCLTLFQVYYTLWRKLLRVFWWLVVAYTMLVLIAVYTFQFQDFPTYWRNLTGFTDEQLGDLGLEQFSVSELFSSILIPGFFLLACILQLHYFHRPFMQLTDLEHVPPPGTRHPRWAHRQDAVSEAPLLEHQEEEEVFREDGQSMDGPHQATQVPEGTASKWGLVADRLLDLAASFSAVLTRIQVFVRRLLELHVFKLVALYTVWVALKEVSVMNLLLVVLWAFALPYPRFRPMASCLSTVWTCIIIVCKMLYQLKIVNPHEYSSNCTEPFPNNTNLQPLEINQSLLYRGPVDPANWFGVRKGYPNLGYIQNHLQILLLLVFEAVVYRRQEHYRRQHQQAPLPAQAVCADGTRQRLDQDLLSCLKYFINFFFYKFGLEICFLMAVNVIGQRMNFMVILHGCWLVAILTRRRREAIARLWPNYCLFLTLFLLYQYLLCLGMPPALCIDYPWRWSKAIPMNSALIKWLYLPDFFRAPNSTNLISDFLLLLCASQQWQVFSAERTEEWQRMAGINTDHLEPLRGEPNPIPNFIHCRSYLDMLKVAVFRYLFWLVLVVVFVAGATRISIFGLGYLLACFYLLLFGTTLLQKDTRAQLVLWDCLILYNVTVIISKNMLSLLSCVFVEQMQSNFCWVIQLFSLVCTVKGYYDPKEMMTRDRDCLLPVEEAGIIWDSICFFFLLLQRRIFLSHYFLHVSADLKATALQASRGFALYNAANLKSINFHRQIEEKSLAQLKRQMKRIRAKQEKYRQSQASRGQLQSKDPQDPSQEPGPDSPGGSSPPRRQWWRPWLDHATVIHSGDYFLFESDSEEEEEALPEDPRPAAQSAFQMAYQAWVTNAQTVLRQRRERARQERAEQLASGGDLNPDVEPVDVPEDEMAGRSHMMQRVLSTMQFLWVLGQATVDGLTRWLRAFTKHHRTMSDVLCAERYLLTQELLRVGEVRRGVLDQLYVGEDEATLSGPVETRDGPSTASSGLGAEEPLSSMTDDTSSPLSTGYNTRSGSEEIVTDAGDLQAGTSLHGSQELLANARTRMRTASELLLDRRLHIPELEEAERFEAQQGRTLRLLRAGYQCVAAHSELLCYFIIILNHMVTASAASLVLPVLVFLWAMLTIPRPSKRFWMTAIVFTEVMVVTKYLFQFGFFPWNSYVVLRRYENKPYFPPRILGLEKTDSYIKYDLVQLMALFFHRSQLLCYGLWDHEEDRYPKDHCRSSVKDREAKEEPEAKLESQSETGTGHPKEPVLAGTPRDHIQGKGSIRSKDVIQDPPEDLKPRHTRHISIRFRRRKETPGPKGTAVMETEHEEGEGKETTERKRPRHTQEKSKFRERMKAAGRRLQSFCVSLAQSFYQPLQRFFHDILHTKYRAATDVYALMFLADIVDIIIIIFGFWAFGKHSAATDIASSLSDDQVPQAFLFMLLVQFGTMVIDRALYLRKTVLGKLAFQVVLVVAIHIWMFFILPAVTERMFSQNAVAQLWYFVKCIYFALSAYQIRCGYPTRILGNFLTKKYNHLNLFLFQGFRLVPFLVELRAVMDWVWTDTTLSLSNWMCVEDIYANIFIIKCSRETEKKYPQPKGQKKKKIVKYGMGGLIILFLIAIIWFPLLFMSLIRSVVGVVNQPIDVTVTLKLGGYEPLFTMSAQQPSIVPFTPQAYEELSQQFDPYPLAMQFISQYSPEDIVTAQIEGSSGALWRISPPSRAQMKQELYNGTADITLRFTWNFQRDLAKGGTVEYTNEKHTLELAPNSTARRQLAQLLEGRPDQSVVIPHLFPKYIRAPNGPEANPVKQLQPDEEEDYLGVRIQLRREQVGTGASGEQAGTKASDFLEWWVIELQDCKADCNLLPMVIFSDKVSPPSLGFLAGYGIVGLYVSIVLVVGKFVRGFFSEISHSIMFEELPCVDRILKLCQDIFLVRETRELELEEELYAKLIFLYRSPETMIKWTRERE

In the assay the target is mouse PIEZO1 in the cryo-EM complex with mouse MDFI (mouse) (UniProt E2JF22). Briefly: cryo-EM structure.

No constants are given. Whether binding was seen depends on the method and setting. A result given as binding can be weak or reduced; the word gives no strength.

With “mouse MDFI in the cryo-EM complex with mouse PIEZO1 (from UniProt P70331-2)”, the binding entry was “binds”.
